Laboratory results taken from patent US20050288222A1, “Methods for enhancing the bioavailability of a drug” (priority 2000, published 2005).

Amino acid sequences for entries named in this document (tags omitted). Residues count along the entry.
UniProt P05067, 672-711 limits assumed: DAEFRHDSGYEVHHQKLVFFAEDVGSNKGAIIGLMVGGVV

Biological target: B-amyloid (Homo sapiens, UniProt P05067)
Assay: KD of potent B-amyloid aggregation inhibitors (Table II)
Format: binding

Row | Compound | Kd [nM]
1 | CC(C)C[C@@H](NC(=O)c1ccc(O)cc1)C(=O)N[C@@H](C(=O)N[C@H](Cc1ccccc1)C(=O)N[C@H](Cc1ccccc1)C(=O)N[C@H](C)C(N)=O)C(C)C [PPI-558, 4-Hydroxybenzoyl-D-Leu-D-Val-D-Phe-D-Phe-D-Ala-NH2] | 2.82
2 | CN[C@H](CC(C)C)C(=O)N[C@@H](C(=O)N[C@H](Cc1ccccc1)C(=O)N[C@H](Cc1ccccc1)C(=O)N[C@H](CC(C)C)C(N)=O)C(C)C [PPI-1019, N-methyl-(D-Leu-D-Val-D-Phe-D-Phe-D-Leu)-NH2] | 0.5
